Some of the results follow. The data scatter; read single values as rough.
compound: ClCC(=O)N[C@@H]1CCCc2ccccc12; assay: log2 mean competition ratio of IA-DTB cysteine labelling (DMSO/compound) (log2 ratio); higher = stronger cysteine engagement by compound; details: 50 µM; treatment time: 4 h; cell line lysate: HEK293T
Method: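 IA-DTB competitive cysteine chemoproteomics in HEK293T RIPA lysate. Lysates were treated with compound 29 or 30 at 50 or 200 µM for 4 h, then IA-DTB (500 µM, 1 h), trypsin-digested, NeutrAvidin-enriched and analysed by diaPASEF. Competition ratio = intensity DMSO / intensity compound (n=4 treated, n=64 DMSO); binding: mean log2 CR ≥ 1 and p ≤ 0.05 plus QC filters. Target is the cysteine site.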

Sequences of proteins named here, by UniProt entry; tags and fusion partners are left off. A change or cut given only in a name is not applied to a line headed by its entry.
UniProt Q96KB5: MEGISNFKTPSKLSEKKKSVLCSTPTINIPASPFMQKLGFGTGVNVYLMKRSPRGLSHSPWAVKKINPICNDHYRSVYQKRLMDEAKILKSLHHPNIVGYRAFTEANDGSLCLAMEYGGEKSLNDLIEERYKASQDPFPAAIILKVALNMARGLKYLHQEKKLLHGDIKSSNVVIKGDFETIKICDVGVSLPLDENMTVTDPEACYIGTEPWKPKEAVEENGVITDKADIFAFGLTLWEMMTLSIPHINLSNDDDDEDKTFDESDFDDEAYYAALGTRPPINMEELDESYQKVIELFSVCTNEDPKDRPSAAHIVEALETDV
UniProt Q01804: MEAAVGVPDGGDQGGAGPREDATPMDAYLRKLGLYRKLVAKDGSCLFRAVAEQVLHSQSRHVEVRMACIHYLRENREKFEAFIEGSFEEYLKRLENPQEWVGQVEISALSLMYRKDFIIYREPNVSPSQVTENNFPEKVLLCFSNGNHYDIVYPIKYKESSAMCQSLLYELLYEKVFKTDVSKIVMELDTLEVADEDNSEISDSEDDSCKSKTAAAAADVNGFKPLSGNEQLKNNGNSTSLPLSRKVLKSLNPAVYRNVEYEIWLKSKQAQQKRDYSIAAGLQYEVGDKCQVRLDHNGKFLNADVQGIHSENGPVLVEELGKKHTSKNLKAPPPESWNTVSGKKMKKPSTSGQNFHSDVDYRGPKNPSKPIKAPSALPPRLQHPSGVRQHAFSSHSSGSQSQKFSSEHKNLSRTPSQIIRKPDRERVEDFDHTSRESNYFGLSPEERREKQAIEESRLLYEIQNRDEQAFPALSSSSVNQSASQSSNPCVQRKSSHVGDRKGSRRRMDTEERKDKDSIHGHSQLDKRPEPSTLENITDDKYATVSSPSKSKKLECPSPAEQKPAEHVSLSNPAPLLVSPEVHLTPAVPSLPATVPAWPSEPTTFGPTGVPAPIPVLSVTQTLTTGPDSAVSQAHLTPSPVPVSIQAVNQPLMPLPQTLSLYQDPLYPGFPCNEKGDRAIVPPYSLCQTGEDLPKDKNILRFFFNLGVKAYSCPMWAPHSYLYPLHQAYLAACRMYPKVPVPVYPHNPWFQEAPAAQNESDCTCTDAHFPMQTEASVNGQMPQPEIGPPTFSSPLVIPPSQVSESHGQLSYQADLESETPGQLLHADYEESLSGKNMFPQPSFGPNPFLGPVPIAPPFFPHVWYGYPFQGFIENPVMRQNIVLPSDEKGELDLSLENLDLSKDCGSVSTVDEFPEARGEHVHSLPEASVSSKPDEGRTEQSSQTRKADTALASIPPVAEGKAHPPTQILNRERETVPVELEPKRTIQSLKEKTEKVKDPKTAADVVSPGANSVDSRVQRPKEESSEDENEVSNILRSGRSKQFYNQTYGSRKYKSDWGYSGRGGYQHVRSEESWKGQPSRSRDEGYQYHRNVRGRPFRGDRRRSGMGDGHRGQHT
UniProt Q9H4Z3: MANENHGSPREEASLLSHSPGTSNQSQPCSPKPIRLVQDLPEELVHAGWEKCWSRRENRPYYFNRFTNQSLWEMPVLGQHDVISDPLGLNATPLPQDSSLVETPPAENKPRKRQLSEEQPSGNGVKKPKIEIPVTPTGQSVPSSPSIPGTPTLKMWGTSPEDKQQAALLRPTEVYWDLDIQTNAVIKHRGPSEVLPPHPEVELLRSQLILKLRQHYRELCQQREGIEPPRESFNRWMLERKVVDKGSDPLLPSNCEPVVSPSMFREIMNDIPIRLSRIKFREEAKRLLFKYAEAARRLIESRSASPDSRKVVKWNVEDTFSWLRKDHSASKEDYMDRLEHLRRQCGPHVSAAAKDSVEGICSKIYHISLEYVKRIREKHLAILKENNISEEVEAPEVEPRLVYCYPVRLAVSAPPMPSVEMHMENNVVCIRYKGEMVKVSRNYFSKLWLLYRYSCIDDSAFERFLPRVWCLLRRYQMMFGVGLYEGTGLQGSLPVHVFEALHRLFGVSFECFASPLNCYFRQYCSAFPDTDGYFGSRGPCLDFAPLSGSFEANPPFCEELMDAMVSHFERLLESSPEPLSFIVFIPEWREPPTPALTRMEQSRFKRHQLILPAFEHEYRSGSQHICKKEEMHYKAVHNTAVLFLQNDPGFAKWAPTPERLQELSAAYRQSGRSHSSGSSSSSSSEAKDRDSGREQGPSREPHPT
UniProt P13674: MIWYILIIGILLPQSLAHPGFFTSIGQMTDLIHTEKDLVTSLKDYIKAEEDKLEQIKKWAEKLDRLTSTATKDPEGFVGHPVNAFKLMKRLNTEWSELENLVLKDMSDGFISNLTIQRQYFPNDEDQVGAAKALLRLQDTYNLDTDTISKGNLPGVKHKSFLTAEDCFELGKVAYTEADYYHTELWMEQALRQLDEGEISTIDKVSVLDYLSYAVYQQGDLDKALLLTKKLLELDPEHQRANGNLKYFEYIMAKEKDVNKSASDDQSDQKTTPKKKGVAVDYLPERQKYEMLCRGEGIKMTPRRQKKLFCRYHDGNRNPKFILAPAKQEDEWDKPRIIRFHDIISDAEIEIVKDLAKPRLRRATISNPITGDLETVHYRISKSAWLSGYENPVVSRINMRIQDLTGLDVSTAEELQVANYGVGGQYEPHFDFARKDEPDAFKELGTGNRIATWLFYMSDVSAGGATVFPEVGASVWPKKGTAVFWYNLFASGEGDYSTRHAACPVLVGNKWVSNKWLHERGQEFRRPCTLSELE
UniProt Q14690: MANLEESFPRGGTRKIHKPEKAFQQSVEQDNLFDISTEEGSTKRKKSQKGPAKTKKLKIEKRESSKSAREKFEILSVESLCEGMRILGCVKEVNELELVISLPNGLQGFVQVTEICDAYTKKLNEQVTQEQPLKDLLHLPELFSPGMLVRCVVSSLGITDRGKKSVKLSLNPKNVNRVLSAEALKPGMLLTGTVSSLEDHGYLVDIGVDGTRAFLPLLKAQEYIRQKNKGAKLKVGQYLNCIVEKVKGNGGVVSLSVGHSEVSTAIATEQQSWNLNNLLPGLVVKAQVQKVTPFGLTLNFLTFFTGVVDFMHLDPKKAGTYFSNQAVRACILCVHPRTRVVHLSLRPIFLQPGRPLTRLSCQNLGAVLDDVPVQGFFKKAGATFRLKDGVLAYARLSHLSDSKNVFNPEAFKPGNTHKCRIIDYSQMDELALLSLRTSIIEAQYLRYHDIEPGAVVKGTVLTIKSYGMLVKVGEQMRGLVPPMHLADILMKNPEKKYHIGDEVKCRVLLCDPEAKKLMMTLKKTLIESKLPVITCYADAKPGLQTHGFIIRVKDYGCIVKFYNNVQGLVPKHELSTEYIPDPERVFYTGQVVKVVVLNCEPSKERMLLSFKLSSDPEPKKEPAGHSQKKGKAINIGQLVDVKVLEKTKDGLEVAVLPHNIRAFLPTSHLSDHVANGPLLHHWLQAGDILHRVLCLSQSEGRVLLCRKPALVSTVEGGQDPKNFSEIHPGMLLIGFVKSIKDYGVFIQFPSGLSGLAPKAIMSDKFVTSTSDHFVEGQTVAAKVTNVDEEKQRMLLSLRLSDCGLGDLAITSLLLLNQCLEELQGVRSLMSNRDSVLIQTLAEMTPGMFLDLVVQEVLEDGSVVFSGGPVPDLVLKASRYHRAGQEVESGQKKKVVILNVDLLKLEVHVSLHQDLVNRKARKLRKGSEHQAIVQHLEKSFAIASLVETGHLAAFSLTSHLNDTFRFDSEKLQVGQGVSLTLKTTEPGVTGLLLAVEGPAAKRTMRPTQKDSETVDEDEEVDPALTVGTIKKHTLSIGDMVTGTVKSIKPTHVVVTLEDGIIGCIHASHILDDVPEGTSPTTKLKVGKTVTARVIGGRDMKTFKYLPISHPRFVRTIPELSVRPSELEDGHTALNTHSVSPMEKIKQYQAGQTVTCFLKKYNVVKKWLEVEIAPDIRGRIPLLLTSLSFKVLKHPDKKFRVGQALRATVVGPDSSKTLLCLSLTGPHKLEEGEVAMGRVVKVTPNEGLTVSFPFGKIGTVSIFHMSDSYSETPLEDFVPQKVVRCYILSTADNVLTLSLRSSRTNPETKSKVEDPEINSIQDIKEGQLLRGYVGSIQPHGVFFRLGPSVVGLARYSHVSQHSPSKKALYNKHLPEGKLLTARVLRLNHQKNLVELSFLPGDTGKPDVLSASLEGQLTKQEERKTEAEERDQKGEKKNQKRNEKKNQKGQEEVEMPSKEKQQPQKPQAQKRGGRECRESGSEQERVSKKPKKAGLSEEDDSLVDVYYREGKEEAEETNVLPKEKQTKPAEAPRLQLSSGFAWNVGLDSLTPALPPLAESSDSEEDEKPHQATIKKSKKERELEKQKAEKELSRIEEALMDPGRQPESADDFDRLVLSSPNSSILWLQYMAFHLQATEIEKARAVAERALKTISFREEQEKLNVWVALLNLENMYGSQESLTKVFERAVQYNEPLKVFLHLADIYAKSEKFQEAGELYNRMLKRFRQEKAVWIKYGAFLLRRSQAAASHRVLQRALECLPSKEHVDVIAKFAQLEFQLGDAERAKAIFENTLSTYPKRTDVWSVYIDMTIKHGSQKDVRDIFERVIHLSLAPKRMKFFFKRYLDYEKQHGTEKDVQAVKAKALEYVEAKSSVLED
UniProt Q9BUH6: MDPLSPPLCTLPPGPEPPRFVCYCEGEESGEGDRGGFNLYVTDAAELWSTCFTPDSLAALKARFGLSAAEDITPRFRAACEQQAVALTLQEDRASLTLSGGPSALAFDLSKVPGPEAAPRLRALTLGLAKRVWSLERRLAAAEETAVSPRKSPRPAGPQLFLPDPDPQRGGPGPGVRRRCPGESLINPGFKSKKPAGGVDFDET
UniProt O43252: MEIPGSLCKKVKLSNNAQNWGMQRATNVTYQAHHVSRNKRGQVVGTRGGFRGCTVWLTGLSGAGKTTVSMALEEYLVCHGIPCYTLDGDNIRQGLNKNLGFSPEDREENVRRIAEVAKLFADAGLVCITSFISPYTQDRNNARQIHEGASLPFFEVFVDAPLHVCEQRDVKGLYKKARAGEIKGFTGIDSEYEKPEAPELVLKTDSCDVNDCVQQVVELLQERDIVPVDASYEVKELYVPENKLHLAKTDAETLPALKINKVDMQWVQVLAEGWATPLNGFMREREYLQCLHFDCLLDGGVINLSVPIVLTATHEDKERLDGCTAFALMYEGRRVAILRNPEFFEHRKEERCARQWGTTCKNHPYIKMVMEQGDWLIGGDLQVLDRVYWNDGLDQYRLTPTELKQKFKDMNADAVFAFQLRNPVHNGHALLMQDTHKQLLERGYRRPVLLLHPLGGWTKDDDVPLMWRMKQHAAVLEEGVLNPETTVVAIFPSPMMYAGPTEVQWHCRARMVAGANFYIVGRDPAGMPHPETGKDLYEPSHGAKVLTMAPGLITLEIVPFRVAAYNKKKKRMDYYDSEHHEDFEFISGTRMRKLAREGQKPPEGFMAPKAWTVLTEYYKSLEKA
UniProt O15460: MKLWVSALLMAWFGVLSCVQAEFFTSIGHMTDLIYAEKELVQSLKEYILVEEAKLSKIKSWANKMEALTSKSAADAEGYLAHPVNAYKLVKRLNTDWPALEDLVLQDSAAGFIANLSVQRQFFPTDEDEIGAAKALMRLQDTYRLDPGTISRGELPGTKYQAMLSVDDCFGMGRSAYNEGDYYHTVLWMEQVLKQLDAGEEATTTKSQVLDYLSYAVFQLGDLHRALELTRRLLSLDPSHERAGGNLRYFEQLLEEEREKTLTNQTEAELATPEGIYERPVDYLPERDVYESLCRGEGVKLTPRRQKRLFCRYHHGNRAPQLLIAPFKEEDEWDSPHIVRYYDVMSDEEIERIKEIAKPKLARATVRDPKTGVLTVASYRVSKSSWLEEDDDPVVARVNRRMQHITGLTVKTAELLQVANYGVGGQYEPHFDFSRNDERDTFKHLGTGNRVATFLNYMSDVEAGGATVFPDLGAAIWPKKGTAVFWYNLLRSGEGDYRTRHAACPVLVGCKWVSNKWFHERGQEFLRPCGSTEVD
UniProt Q14554: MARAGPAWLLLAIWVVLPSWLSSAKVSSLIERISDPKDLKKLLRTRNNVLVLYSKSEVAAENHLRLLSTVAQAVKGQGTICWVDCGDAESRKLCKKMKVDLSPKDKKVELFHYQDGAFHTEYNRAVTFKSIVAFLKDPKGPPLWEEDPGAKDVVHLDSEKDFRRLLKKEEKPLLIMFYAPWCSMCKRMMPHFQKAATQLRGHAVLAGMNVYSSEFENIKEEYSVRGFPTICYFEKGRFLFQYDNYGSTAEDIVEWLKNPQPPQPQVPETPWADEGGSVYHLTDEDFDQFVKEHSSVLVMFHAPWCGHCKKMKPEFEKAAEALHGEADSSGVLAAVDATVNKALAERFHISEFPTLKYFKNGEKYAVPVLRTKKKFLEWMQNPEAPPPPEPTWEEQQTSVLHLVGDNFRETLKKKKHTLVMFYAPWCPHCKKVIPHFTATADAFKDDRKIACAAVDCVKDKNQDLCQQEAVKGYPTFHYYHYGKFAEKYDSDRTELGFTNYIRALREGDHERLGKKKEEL

| Target | log2 mean competition ratio |
| --- | --- |
| PBK C300 (UniProt Q96KB5) | -0.277 |
| PDK2 C195 (UniProt Q15119) | 0.144 |
| OTUD4 C686 (UniProt Q01804) | -0.323 |
| PARD6G C16 | -0.208 |
| PCIF1 C404 (UniProt Q9H4Z3) | 0.182 |
| PALS2 C432 | -0.237 |
| PARG C711 (UniProt Q86W56) | 0.133 |
| PFN1 C128 | -0.109 |
| PACSIN3 C421 (UniProt Q9UKS6) | -0.171 |
| P4HA1 C503 (UniProt P13674) | 0.0269 |
| OTUD4 C903 (UniProt Q01804) | -0.224 |
| PDCD11 C151 (UniProt Q14690) | 0.226 |
| PCIF1 C455 (UniProt Q9H4Z3) | 0.101 |
| PAXX C180 (UniProt Q9BUH6) | 0.0623 |
| PDE7A C402 | -0.36 |
| PAPSS1 C360 (UniProt O43252) | 0.662 |
| P4HA2 C529 (UniProt O15460) | 0.215 |
| PC C739 (UniProt P11498) | -0.0353 |
| PFAS C270 (UniProt O15067) | -0.0882 |
| PDIA5 C465 (UniProt Q14554) | -0.594 |

same assay, conditions: 200 µM; treatment time: 4 h; cell line lysate: HEK293T

| Target | log2 mean competition ratio |
| --- | --- |
| PBK C300 (UniProt Q96KB5) | -0.258 |
| PDK2 C195 (UniProt Q15119) | 0.241 |
| OTUD4 C686 (UniProt Q01804) | 1.85 |
| PARD6G C16 | -0.27 |
| PCIF1 C404 (UniProt Q9H4Z3) | -0.00099 |
| PALS2 C432 | -0.0523 |
| PARG C711 (UniProt Q86W56) | -0.352 |
| PFN1 C128 | 0.471 |
| PACSIN3 C421 (UniProt Q9UKS6) | -0.0722 |
| P4HA1 C503 (UniProt P13674) | -0.0782 |
| OTUD4 C903 (UniProt Q01804) | -0.232 |
| PDCD11 C151 (UniProt Q14690) | 0.0903 |
| PCIF1 C455 (UniProt Q9H4Z3) | -0.0368 |
| PAXX C180 (UniProt Q9BUH6) | 0.0987 |
| PDE7A C402 | 0.361 |
| PAPSS1 C360 (UniProt O43252) | 2.92 |
| P4HA2 C529 (UniProt O15460) | -0.0718 |
| PC C739 (UniProt P11498) | 0.146 |
| PFAS C270 (UniProt O15067) | -0.00667 |
| PDIA5 C465 (UniProt Q14554) | -0.705 |

— the supplement of paper PMC11732987, “Enantioselective OTUD7B fragment discovery through chemoproteomics screening and high-throughput optimisation” (Communications Chemistry, 2025)
